Taken from: PubChem BioAssay AID1224828 (NIAID, 2016)

Aim: 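Knock-downs that increase or decrease LPS-induced p65 nuclear translocation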 (primary screen)
System: mouse RAW264.7 G9 macrophage reporter cells (GFP-p65, Tnf promoter-mCherry)
Reagents: siRNA pool against mouse genes, 100 nM
Duration: 2 days siRNA transfection, then 40 min LPS before fixation
Treatment: LPS (Salmonella minnesota R595) at 10 ng/ml
Read-out: 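Microscopy ratio of nuclear to perinuclear-ring GFP-p65 signal, scaled to the plate median; gene score is the average of two replicate robust z-scores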
Reading the numbers: p65 translocation robust z-score: higher = more nuclear NF-kappaB p65 after LPS than the plate median; nuclear/cytoplasmic p65 ratio: higher = more nuclear NF-kappaB p65
Rule for the call: 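Called active when z exceeds 3.3 or falls under -1.56 (median of Tlr4 controls), giving activity score of at least 50; no calls for control wells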
Calls: active = hit (p65 shift raised or lowered); inactive = no clear change
Here is one part, drawn at random, of about 17,000 deposited reagents. 762 of all reagents (4.5%) were called active. 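Active calls include both raised and lowered p65 entry, mostly lowered; wells with fewer than 50 cells lack a z-score.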 Raw values vary from plate to plate and are shown uncorrected. Unmarked entries are inactive.

Which result is listed for Or8g20 [SID315468313]?
p65 translocation robust z-score: 1.58; nuclear/cytoplasmic p65 ratio, rep 1: 1.65; nuclear/cytoplasmic p65 ratio, rep 2: 1.46; low cell count flag: enough cells to score

What did the screen give for Nars1 [SID315473993]?
p65 translocation robust z-score: 1.02; nuclear/cytoplasmic p65 ratio, rep 1: 1.86; nuclear/cytoplasmic p65 ratio, rep 2: 1.83; low cell count flag: enough cells to score

What did the screen give for Gp2 [SID315472857]?
p65 translocation robust z-score: 0.57; nuclear/cytoplasmic p65 ratio, rep 1: 1.72; nuclear/cytoplasmic p65 ratio, rep 2: 1.57; low cell count flag: enough cells to score

What did the screen give for Fat4 [SID315481539]?
p65 translocation robust z-score: -1.76 (active); nuclear/cytoplasmic p65 ratio, rep 1: 1.21; nuclear/cytoplasmic p65 ratio, rep 2: 1.28; low cell count flag: enough cells to score

What is on record for Fat4 [SID315481540]?
nuclear/cytoplasmic p65 ratio, rep 1: 1.25; nuclear/cytoplasmic p65 ratio, rep 2: 1.21; low cell count flag: fewer than 50 cells per well; well left out of scoring

What is on record for Lgi2 [SID315479879]?
p65 translocation robust z-score: 0.6; nuclear/cytoplasmic p65 ratio, rep 1: 1.87; nuclear/cytoplasmic p65 ratio, rep 2: 1.58; low cell count flag: enough cells to score

Which result is listed for Nfatc4 [SID315474689]?
p65 translocation robust z-score: 1.58; nuclear/cytoplasmic p65 ratio, rep 1: 1.69; nuclear/cytoplasmic p65 ratio, rep 2: 1.5; low cell count flag: enough cells to score

What is on record for Atp6v1e2 [SID315475057]?
p65 translocation robust z-score: 0.43; nuclear/cytoplasmic p65 ratio, rep 1: 1.58; nuclear/cytoplasmic p65 ratio, rep 2: 1.66; low cell count flag: enough cells to score

With Foxc1 [SID315467911], what does the deposit list?
p65 translocation robust z-score: 0.07; nuclear/cytoplasmic p65 ratio, rep 1: 1.37; nuclear/cytoplasmic p65 ratio, rep 2: 1.45; low cell count flag: enough cells to score

What is on record for Or10q1 [SID315480601]?
p65 translocation robust z-score: -1.59 (active); nuclear/cytoplasmic p65 ratio, rep 1: 1.42; nuclear/cytoplasmic p65 ratio, rep 2: 1.17; low cell count flag: enough cells to score

Which result is listed for Cacna1e [SID315465710]?
p65 translocation robust z-score: -0.61; nuclear/cytoplasmic p65 ratio, rep 1: 1.48; nuclear/cytoplasmic p65 ratio, rep 2: 1.56; low cell count flag: enough cells to score

With Gm5084 [SID315481470], how do the results read?
p65 translocation robust z-score: -1.06; nuclear/cytoplasmic p65 ratio, rep 1: 1.3; nuclear/cytoplasmic p65 ratio, rep 2: 1.31; low cell count flag: enough cells to score

Just “nuclear/cytoplasmic p65 ratio, rep 1”, for 2 of the entries above:
Fat4 [SID315481539]: 1.21 (active)
Fat4 [SID315481540]: 1.25
